Laboratory results: PubChem BioAssay AID1259308 (NCATS, 2017)
This is one part, drawn at random, of about 59,000 deposited reagents. About 1,510 of them (2.6%) count as active. 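Calls use total luciferase alone and ignore viability, so some active siRNAs may act by altering cell number.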 Reagents against one gene are numbered here. Further read-outs or replicates are left out here. No sequences are given here.

Aim: 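Candidate targets for better recombinant protein yield in mammalian cells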 (primary screen)
Cell system: human HEK293 embryonic kidney cells stably expressing firefly luciferase (HEK-CMV-Luc2-Hygro)
Reagent: single siRNA against human genes, 0.8 pmol siRNA per well
Duration: 72 h
Measured: 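Luciferase light (ONE-Glo) measured on one replicate plate set and viability (CellTiter-Glo) on the other, scaled to a negative control siRNA, with robust z-scores and luciferase per cell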
Scale: total luciferase, z-score and total luciferase, % of control: higher = more reporter protein produced
Call rule: 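An siRNA counts as active if its total luciferase robust z-score exceeds 3; genes with two or more such siRNAs out of three were retested with fresh siRNAs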
Calls: active = raised luciferase; inactive = no rise

SLC66A1 #1 gave total luciferase, z-score 0.75; total luciferase, % of control 96.8; inactive.
Depletion of SLC66A1 #2 gave: total luciferase, z-score 2.79; total luciferase, % of control 137; inactive.
With knock-down of SLC66A1 #3 the results were total luciferase, z-score -0.126; total luciferase, % of control 79.4; inactive.
After knock-down of LRRC8B (leucine rich repeat containing 8 VRAC subunit B) #1, the screen gave total luciferase, z-score -0.0414; total luciferase, % of control 81.1; inactive.
After knock-down of LRRC8B (leucine rich repeat containing 8 VRAC subunit B) #2, the screen gave total luciferase, z-score -1.16; total luciferase, % of control 58.9; inactive.
For LRRC8B (leucine rich repeat containing 8 VRAC subunit B) #3, the entry reads total luciferase, z-score 1.06; total luciferase, % of control 103; inactive.
After knock-down of TSHZ3 (teashirt zinc finger homeobox 3) #1, the screen gave total luciferase, z-score 0.0292; total luciferase, % of control 82.5; inactive.
Silencing of TSHZ3 (teashirt zinc finger homeobox 3) #2 gave: total luciferase, z-score 0.495; total luciferase, % of control 91.7; inactive.
Knock-down of TSHZ3 (teashirt zinc finger homeobox 3) #3 resulted in: total luciferase, z-score -0.124; total luciferase, % of control 79.4; inactive.
Silencing of CPB2 (carboxypeptidase B2) #1 came out at: total luciferase, z-score -0.226; total luciferase, % of control 77.4; inactive.
After knock-down of CPB2 (carboxypeptidase B2) #2, the screen gave total luciferase, z-score -0.898; total luciferase, % of control 64; inactive.
CPB2 (carboxypeptidase B2) #3 showed total luciferase, z-score -0.564; total luciferase, % of control 70.7; inactive.
With knock-down of FATE1 (fetal and adult testis expressed 1) #1, the record shows total luciferase, z-score 4.2; total luciferase, % of control 165; active.
Silencing of FATE1 (fetal and adult testis expressed 1) #2 gave: total luciferase, z-score -1.15; total luciferase, % of control 59; inactive.
For FATE1 (fetal and adult testis expressed 1) #3, the entry reads total luciferase, z-score -0.681; total luciferase, % of control 68.3; inactive.
SF3A2 (splicing factor 3a subunit 2) #1 showed total luciferase, z-score 0.951; total luciferase, % of control 101; inactive.
With knock-down of SF3A2 (splicing factor 3a subunit 2) #2, the record shows total luciferase, z-score 2.22; total luciferase, % of control 126; inactive.
Knock-down of SF3A2 (splicing factor 3a subunit 2) #3 gave: total luciferase, z-score 4.81; total luciferase, % of control 178; active.
Silencing of AUP1 (AUP1 lipid droplet regulating VLDL assembly factor) #1 resulted in: total luciferase, z-score 0.903; total luciferase, % of control 99.8; inactive.
Depletion of AUP1 (AUP1 lipid droplet regulating VLDL assembly factor) #2 came out at: total luciferase, z-score -1.84; total luciferase, % of control 45.3; inactive.
After knock-down of AUP1 (AUP1 lipid droplet regulating VLDL assembly factor) #3, the record shows total luciferase, z-score 0.413; total luciferase, % of control 90.1; inactive.
Depletion of EIF4H (eukaryotic translation initiation factor 4H) #1 resulted in: total luciferase, z-score 0.453; total luciferase, % of control 90.9; inactive.
Knock-down of EIF4H (eukaryotic translation initiation factor 4H) #2 resulted in: total luciferase, z-score -0.263; total luciferase, % of control 76.6; inactive.
Knock-down of EIF4H (eukaryotic translation initiation factor 4H) #3 came out at: total luciferase, z-score -1.59; total luciferase, % of control 50.3; inactive.
Against ZNF432 (zinc finger protein 432) #1, the values are total luciferase, z-score -0.283; total luciferase, % of control 76.2; inactive.
ZNF432 (zinc finger protein 432) #2 gave total luciferase, z-score -0.587; total luciferase, % of control 70.2; inactive.
After knock-down of ZNF432 (zinc finger protein 432) #3 the results were total luciferase, z-score -0.322; total luciferase, % of control 75.5; inactive.
For PAK2 (p21 (RAC1) activated kinase 2) #1, the entry reads total luciferase, z-score 0.264; total luciferase, % of control 87.1; inactive.
Depletion of PAK2 (p21 (RAC1) activated kinase 2) #2 came out at: total luciferase, z-score -0.308; total luciferase, % of control 75.8; inactive.
PAK2 (p21 (RAC1) activated kinase 2) #3 scored total luciferase, z-score -0.543; total luciferase, % of control 71.1; inactive.
For TTC6 (tetratricopeptide repeat domain 6) #1 the deposit lists total luciferase, z-score 0.566; total luciferase, % of control 93.1; inactive.
For TTC6 (tetratricopeptide repeat domain 6) #2, the entry reads total luciferase, z-score 0.55; total luciferase, % of control 92.8; inactive.
TTC6 (tetratricopeptide repeat domain 6) #3 gave total luciferase, z-score -0.766; total luciferase, % of control 66.7; inactive.
For TTC6 (tetratricopeptide repeat domain 6) #4, the values are total luciferase, z-score 0.774; total luciferase, % of control 97.3; inactive.
Against TTC6 (tetratricopeptide repeat domain 6) #5, the entry reads total luciferase, z-score 0.0532; total luciferase, % of control 82.9; inactive.
Depletion of TTC6 (tetratricopeptide repeat domain 6) #6 gave: total luciferase, z-score -0.484; total luciferase, % of control 72.3; inactive.
Knock-down of LINC00273 (long independently transcribed non-coding RNA 273) #1 resulted in: total luciferase, z-score 0.108; total luciferase, % of control 84; inactive.
LINC00273 (long independently transcribed non-coding RNA 273) #2 showed total luciferase, z-score -0.503; total luciferase, % of control 71.9; inactive.
With knock-down of LINC00273 (long independently transcribed non-coding RNA 273) #3, the record shows total luciferase, z-score 0.696; total luciferase, % of control 95.7; inactive.
With knock-down of PCYT1B (phosphate cytidylyltransferase 1B, choline) #1, the screen gave total luciferase, z-score 1.23; total luciferase, % of control 106; inactive.
With knock-down of PCYT1B (phosphate cytidylyltransferase 1B, choline) #2, the screen gave total luciferase, z-score 0.822; total luciferase, % of control 98.2; inactive.
PCYT1B (phosphate cytidylyltransferase 1B, choline) #3 showed total luciferase, z-score 0.0266; total luciferase, % of control 82.4; inactive.
